Values from PubChem BioAssay AID652243 (Drosophila RNAi Screening Center, 2013).
Test: 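Knock-downs that decrease or increase androgen receptor reporter signal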 (primary screen). Cells: Drosophila S2R+ cells. Knock-down reagent: long dsRNA against Drosophila genes. Timing: 72 h (48 h, then 24 h hormone). Conditions: synthetic androgen R1881 at 10 nM for 24 h. Measured: 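Firefly light from an androgen-responsive reporter and Renilla control light per well, raw and unnormalised, for each of two replicates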. Scale: firefly reporter light: higher = more light from androgen-responsive reporter; Renilla control light: higher = more constitutive control signal (cell number, transfection). Active means: 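Hit when the log firefly-to-Renilla ratio dropped or increased by a fixed fold versus the mean of GFP or LacZ controls across duplicate plates; lowering cut given as 1.5 and as 3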. Meaning of the calls: active = hit: reporter lowered or raised; inactive = no hit.
The screen tested about 24,000 reagents; shown is an unselected part of those that have a named target and a result. Of all reagents, 246 (1%) are marked active. 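Plates not normalised; calls are printed but the firefly/Renilla ratio behind them is not deposited; fold cut for lowering reported inconsistently.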 The raw values are shown without normalisation. Reagents against one gene are numbered here. A plus sign joins genes that one reagent is predicted to hit. Not given: the amount of reagent.

{"gene": "lncRNA:CR32661 + lncRNA:CR43157", "dsRNA no.": 1, "firefly reporter light, replicate 1": 4.15e5, "firefly reporter light, replicate 2": 3.95e5, "Renilla control light, replicate 1": 4.15e6, "Renilla control light, replicate 2": 3.91e6, "activity call": "inactive"}
{"gene": "CG32536 + CG32537", "dsRNA no.": 1, "firefly reporter light, replicate 1": 3.23e5, "firefly reporter light, replicate 2": 2.41e5, "Renilla control light, replicate 1": 1.62e6, "Renilla control light, replicate 2": 1.22e6, "activity call": "inactive"}
{"gene": "CG42240", "dsRNA no.": 1, "firefly reporter light, replicate 1": 5.08e5, "firefly reporter light, replicate 2": 5.23e5, "Renilla control light, replicate 1": 1.76e6, "Renilla control light, replicate 2": 1.84e6, "activity call": "inactive"}
{"gene": "CG42240", "dsRNA no.": 2, "firefly reporter light, replicate 1": 8.68e5, "firefly reporter light, replicate 2": 7.27e5, "Renilla control light, replicate 1": 1.30e6, "Renilla control light, replicate 2": 1.53e6, "activity call": "inactive"}
{"gene": "sra", "dsRNA no.": 1, "firefly reporter light, replicate 1": 59907, "firefly reporter light, replicate 2": 54278, "Renilla control light, replicate 1": 3.56e5, "Renilla control light, replicate 2": 4.95e5, "activity call": "inactive"}
{"gene": "CG9231", "dsRNA no.": 1, "firefly reporter light, replicate 1": 51473, "firefly reporter light, replicate 2": 64273, "Renilla control light, replicate 1": 3.99e5, "Renilla control light, replicate 2": 3.53e5, "activity call": "inactive"}
{"gene": "Enoph", "dsRNA no.": 1, "firefly reporter light, replicate 1": 50573, "firefly reporter light, replicate 2": 58238, "Renilla control light, replicate 1": 9.77e5, "Renilla control light, replicate 2": 1.07e6, "activity call": "inactive"}
{"gene": "Edg91", "dsRNA no.": 1, "firefly reporter light, replicate 1": 82654, "firefly reporter light, replicate 2": 23707, "Renilla control light, replicate 1": 1.36e6, "Renilla control light, replicate 2": 5.38e5, "activity call": "inactive"}
{"gene": "CG18853 + phr", "dsRNA no.": 1, "firefly reporter light, replicate 1": 1.66e5, "firefly reporter light, replicate 2": 2.37e5, "Renilla control light, replicate 1": 4.68e5, "Renilla control light, replicate 2": 9.48e5, "activity call": "inactive"}
{"gene": "CG32262", "dsRNA no.": 1, "firefly reporter light, replicate 1": 6.46e5, "firefly reporter light, replicate 2": 8.20e5, "Renilla control light, replicate 1": 1.40e6, "Renilla control light, replicate 2": 1.18e6, "activity call": "inactive"}
{"gene": "CG32262", "dsRNA no.": 2, "firefly reporter light, replicate 1": 4.27e5, "firefly reporter light, replicate 2": 4.75e5, "Renilla control light, replicate 1": 1.45e6, "Renilla control light, replicate 2": 1.13e6, "activity call": "inactive"}
{"gene": "CG42324", "dsRNA no.": 1, "firefly reporter light, replicate 1": 1.02e5, "firefly reporter light, replicate 2": 1.12e5, "Renilla control light, replicate 1": 1.56e6, "Renilla control light, replicate 2": 1.80e6, "activity call": "inactive"}
{"gene": "CG42324", "dsRNA no.": 2, "firefly reporter light, replicate 1": 1.78e5, "firefly reporter light, replicate 2": 1.71e5, "Renilla control light, replicate 1": 1.98e6, "Renilla control light, replicate 2": 1.81e6, "activity call": "inactive"}
{"gene": "CG42324", "dsRNA no.": 3, "firefly reporter light, replicate 1": 2.67e5, "firefly reporter light, replicate 2": 2.54e5, "Renilla control light, replicate 1": 6.55e5, "Renilla control light, replicate 2": 6.30e5, "activity call": "inactive"}
